Data on two molecules can be found in article PMC4542281.

Chains of the proteins cited; added tags and fusions are not shown. Lines headed by an entry give the natural chain unless they say otherwise; changes in a name come on top.
UniProt Q9VGQ8: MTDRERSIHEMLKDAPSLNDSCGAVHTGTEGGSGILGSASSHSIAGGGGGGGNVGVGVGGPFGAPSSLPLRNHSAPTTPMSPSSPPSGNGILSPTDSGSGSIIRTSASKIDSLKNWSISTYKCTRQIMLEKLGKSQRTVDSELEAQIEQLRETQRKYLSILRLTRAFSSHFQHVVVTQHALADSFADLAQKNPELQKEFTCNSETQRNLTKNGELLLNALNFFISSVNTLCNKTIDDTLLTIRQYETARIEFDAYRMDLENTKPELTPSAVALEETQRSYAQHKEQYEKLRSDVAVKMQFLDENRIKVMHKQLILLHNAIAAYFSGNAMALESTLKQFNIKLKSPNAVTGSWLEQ

Results are given in words; binding and its absence hold for the method and conditions named. Binding seen in cells or lysates may run through a third protein. A result given as binding can be weak or reduced; the word gives no strength. Sequences can lack the tags named with a protein.

Test [1] has as its target T1, HA-tagged Drosophila Arf-like 1 (Arl1) (Drosophila) (UniProt P25160).
T1 sequence: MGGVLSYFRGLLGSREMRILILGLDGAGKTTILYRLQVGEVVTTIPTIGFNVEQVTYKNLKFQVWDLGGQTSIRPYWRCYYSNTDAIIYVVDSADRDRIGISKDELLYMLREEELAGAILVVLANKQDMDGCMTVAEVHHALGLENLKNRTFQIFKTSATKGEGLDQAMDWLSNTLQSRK
Nature of the test: co-IP; lysate of S2 cells co-expressing FLAG-Arfip and Arl1-HA incubated with anti-HA antibody-coated beads; IP buffer 50 mM Tris (7.4), 50 mM NaCl, 1% TX-100, 1 mM MgCl2, protease inhibitors; immunoblot.

Test [2] has as its target FLAG-tagged Drosophila Arfaptin (Arfip) (Drosophila) (UniProt Q9VGQ8). The experiment in a line: co-IP; lysate of S2 cells co-expressing FLAG-Arfip and Arl1-HA incubated with anti-FLAG antibody-coated beads; IP buffer 50 mM Tris (7.4), 50 mM NaCl, 1% TX-100, 1 mM MgCl2, protease inhibitors; immunoblot. A general note: In western blotting, separated proteins are transferred to a membrane and probed.

For “FLAG-tagged Drosophila Arfaptin (Arfip) (from UniProt Q9VGQ8)”, the binding result in test [1] is “binds”.

B1: HA-tagged Drosophila Arf-like 1 (Arl1) (protein, UniProt P25160 1-180)
chain: T1 sequence
In the case of B1, the binding result in test [2] is “binds”.
